The source of these data is patent US9994617B2, “Modulation of structured polypeptide specificity” (BICYCLE THERAPEUTICS LIMITED, priority 2011, dated 2018).

These are yes or no findings as the source states them, for the method shown.

T1: Human factor XIIa (hfXIIa) (human) (UniProt P00748)
T1 sequence (looked up): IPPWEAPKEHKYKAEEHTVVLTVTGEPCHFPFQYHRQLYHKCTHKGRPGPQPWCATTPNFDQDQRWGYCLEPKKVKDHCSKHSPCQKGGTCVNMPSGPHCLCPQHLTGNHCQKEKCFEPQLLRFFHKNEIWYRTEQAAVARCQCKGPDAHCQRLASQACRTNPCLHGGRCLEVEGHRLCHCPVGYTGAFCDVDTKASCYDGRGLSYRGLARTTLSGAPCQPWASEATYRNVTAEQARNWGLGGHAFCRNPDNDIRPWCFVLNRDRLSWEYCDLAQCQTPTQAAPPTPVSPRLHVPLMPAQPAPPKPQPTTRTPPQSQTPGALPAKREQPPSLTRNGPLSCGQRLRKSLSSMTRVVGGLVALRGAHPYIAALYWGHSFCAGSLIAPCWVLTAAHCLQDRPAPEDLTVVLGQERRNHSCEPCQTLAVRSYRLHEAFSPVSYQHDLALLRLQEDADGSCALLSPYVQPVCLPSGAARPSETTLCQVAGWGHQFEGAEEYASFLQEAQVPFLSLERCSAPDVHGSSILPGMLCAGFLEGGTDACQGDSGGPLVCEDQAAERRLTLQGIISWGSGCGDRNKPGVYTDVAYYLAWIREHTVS

The target of one assay is T1, Human factor XIIa (hfXIIa) (human). Description: protease inhibition assay (quantity not given).
For the molecule ACTWPARCTMQNWCA (three Cys linked to TBMB scaffold; free N-terminus; amidated C-terminus) [06-A2*], the binding result was “no binding (tested: 10000 (unit not printed))”.
Same read-out and setting: then ACGVPYRCTHQEMCA (three Cys linked to TBMB scaffold; free N-terminus; amidated C-terminus) [06-64 T (5 x 5 peptide of Table 4)], with “no binding (tested: 10000 (unit not printed))”; and ACSWPARCNHQDLCA (three Cys linked to TBMB scaffold; free N-terminus; amidated C-terminus) [06-57], with “no binding (tested: 10000 (unit not printed))”.
With ACNWPYRCLHTDLCA (three Cys linked to TBMB scaffold; free N-terminus; amidated C-terminus) [06-157], the binding result is listed as “no binding (tested: 10000 (unit not printed))”.
Turning to ACRWPARCLTTSLCA (three Cys linked to TBMB scaffold; free N-terminus; amidated C-terminus) [06-59], the binding result is “no binding (tested: 10000 (unit not printed))”.
The same measure, in the same setting: in the case of ACTWPARCTHQNWCA (three Cys linked to TBMB scaffold; free N-terminus; amidated C-terminus) [06-09] it was “no binding (tested: 10000 (unit not printed))”.
Take ACRWPARCTHQNYCA (three Cys linked to TBMB scaffold; free N-terminus; amidated C-terminus) [06-54 (2A2) T]: the binding entry was “no binding (tested: 10000 (unit not printed))”.
Regarding ACADPWACLFRRPCA (three Cys linked to TBMB scaffold; free N-terminus; amidated C-terminus) [06-63 T], the binding result is recorded as “no binding (tested: 10000 (unit not printed))”.
Still for that read-out and setting: then ACSWPYRCLHQDYCA (three Cys linked to TBMB scaffold; free N-terminus; amidated C-terminus) [06-61], with “no binding (tested: 10000 (unit not printed))”.
Still for that read-out and setting: then ACAWPARCLTVDLCA (three Cys linked to TBMB scaffold; free N-terminus; amidated C-terminus) [06-01], with “no binding (tested: 10000 (unit not printed))”.

The target is the same in the next assay. Put plainly: protease inhibition assay.
Turning to ACRWPARCTHQNYCA (three Cys linked to TBMB scaffold; free N-terminus; amidated C-terminus) [06-54 (2A2) T], the binding result was “no binding (tested: 100 µM)”.
